Reference: PubChem BioAssay AID2685 (National Center for Advancing Translational Sciences (NCATS), 2010)
The other results are listed elsewhere or left out. Further columns of the screen follow, without active or inactive calls. Most of these compounds were active or inconclusive in the main read-out, so they are no random draw. Words in brackets tell the shape of the fitted curve; partial curves, single points and poor fits give uncertain potencies.

Assay: qHTS Assay for Lipid Storage Modulators in Drosophila S3 Cells;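 as to cell number change: cells counted by Cell Tracker Red CMTPX staining in the red channel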
Conditions: BODIPY lipid droplet fluorescence, 18-24 h; for cell number change: measured here: cell count max response, cells fed with added oleic acid
Procedure, shortened: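 Drosophila S3 cells loaded with oleic acid (400 uM, as added) and compounds at several concentrations; lipid droplets imaged by 488-nm laser-scanning cytometry, 500–530 nm intensity and object ratio to cell channel. Percent activity normalized to 20 uM Triacsin C.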

[1] = measured here: lipid fluorescence (Fed channel) AC50, cells fed with added oleic acid
[2] = measured here: cell number channel AC50, cells fed with added oleic acid

SMILES	cell number change [%]	AC50 [1]	AC50 [2]
C=CCn1c2ccccc2c2nnc(SCCN3CCCCC3)nc21	-1.17	2.91 µM [falling, partial curve]	–
COc1ccc(-c2c(C)n([O-])c3c([n+]2=O)CCCC3)c(OC)c1	-15.4	3.66 µM [falling, full curve]	0.82 µM [falling, full curve, poor fit]
COCCOC(=O)C1=C(C)NC(C)=C(C(=O)OC(C)C)C1c1cccc([N+](=O)[O-])c1 (stereo not drawn)	0.492	1.64 µM [rising, partial curve, poor fit]	–
Cc1cc(N2CCN(C)CC2)ccc1NC(=O)c1cccc(S(=O)(=O)N2CCc3ccccc3C2)c1	-55.8	–	–
CCCCNC(=O)CCn1c(=O)c2ccccc2n(Cc2ccc(F)cc2)c1=O	9.32	14.6 µM [rising, single point]	–
NC(=S)Nc1ccc(S(=O)(=O)c2ccc(NC(N)=S)cc2)cc1	-0.503	0.731 µM [falling, full curve]	–
O=C(Nc1cccc(Cl)c1N1CCOCC1)c1cccnc1	-2.78	–	–
Cc1ccc(-n2c(SCC(=O)NCc3ccco3)nc3sc4c(c3c2=O)CC(C)(C)SC4)cc1	-2.3	–	–
COc1ccc(-c2csc(C3=C(O)CN(CCCN4CCCC4=O)C3=N)n2)cc1OC	-63.2	8.2 µM [falling, partial curve]	2.31 µM [falling, partial curve, poor fit]
COc1cccc(NC(=O)C2CCCO2)c1 (stereo not drawn)	-4.4	2.06 µM [rising, partial curve]	–
O=C(COc1cccc2c1CCN(Cc1ccccc1F)C2=O)N1CCOCC1	28.4	0.082 µM [rising, full curve, poor fit]	0.517 µM [rising, full curve, poor fit]
Cn1c(SCC(=O)N2CCCCCC2)nc2c(c1=O)SCC2	11.6	7.31 µM [rising, partial curve, poor fit]	–
Cn1cc(/C=C(\NC(=O)c2ccccc2Cl)C(=O)N2CCOCC2)c2ccccc21	-9.79	–	–
COC(=O)c1sc(NC(=S)NC(=O)c2ccccc2C)nc1C	27.4	1.46 µM [rising, partial curve, poor fit]	–
COc1ccc(-n2cnnc2SCc2cnc(-c3ccccc3)s2)cc1	-8.02	1.64 µM [rising, full curve, poor fit]	–
COC(=O)c1cn(CC(=O)NCc2ccco2)c2ccccc12	–	0.58 µM [falling, single point]	–
COc1ccc(C(=O)NCCS(=O)(=O)N2CCOCC2)cc1	-32.5	–	32.6 µM [falling, single point]
O=C(Nc1cc(S(=O)(=O)N2CCCC2)ccc1Cl)C1=COCCO1	25	1.03 µM [rising, full curve]	–
COC(=O)c1sc(SC)c(S(=O)(=O)C(C)C)c1N/N=C(\C#N)S(=O)(=O)c1ccccn1	24.8	8.2 µM [rising, partial curve, poor fit]	–
COc1ccccc1N(CC(=O)NCCSCc1cccc(C)c1)S(=O)(=O)c1ccccc1	-13.5	0.0291 µM [falling, full curve]	–

SMILES	cell number change [%]	AC50 [1]	AC50 [2]
Cc1ccc(SCC(=O)OC(C)C(=O)Nc2ccc(S(N)(=O)=O)cc2)cc1C (stereo not drawn)	25	0.103 µM [falling, full curve, poor fit]	0.00517 µM [rising, full curve]
CO/N=C/c1ccc(N2CCOCC2)c([N+](=O)[O-])c1	10.8	–	–
Cc1cc(C)c2c(N=NN3CCOCC3)[nH]nc2n1	64.7	–	29.1 µM [rising, single point]
O=C(O)c1cc(Br)ccc1NN=C1CCCCC1	-15.7	0.0082 µM [rising, full curve, poor fit]	–
O=C(OCc1cc2ccccc2[nH]c1=O)c1cccnc1	8.69	0.461 µM [rising, full curve, poor fit]	–
CCN1CCN(C(=O)N(c2ccccc2)c2ccccc2)CC1	17.2	29.1 µM [falling, single point]	–
CCN(CC(=O)NCc1cccs1)C(=O)c1cccc(S(=O)(=O)Nc2ccc(C)cc2)c1	–	–	1.64 µM [rising, partial curve]
NC(=O)c1cc(N2C(=O)C=CC2=O)ccc1Cl	-83.9	29.1 µM [falling, single point]	29.1 µM [falling, single point]
CS(=O)(=O)c1ccccc1C(=O)Nc1ccc(-c2nc3ccccc3[nH]2)cc1	-25.1	0.259 µM [falling, full curve]	–
O=C(Cc1cccs1)NCCc1ccc(F)cc1	10.8	–	–
CCCOC(=O)N[C@@H]1C(=O)N2C(C(=O)OCCC)=C(C)CS[C@H]12	2.1	14.6 µM [rising, partial curve, poor fit]	–
CCOC(=O)c1cccc(NC(=O)CSc2nnc(-c3cccnc3)n2C)c1	–	0.651 µM [falling, partial curve, poor fit]	6.51 µM [falling, single point]
CC(=O)c1ccc(N2CCN(c3ncc(C(F)(F)F)cc3Cl)CC2)cc1	24.7	29.1 µM [rising, single point]	–
CCCCc1nc2cc(C(=O)N3CCC(OCCOC)CC3)ccc2o1	13.3	0.231 µM [rising, full curve, poor fit]	–
Cc1cc(NC(=O)c2cccs2)cc(-c2nc3ncccc3o2)c1O	-13.5	2.06 µM [rising, partial curve]	–
CC1(C)CC(=O)c2sc(NS(=O)(=O)c3ccc([N+](=O)[O-])cc3)nc2C1	32.7	6.51 µM [rising, single point]	32.6 µM [rising, single point]
CC(C)n1c(N2CCN(C(=O)Nc3ccc(F)cc3F)CC2)nc2ccccc21	-40.7	–	11.6 µM [falling, single point]
Cc1cccc(Sc2c([N+](=O)[O-])ncn2C)n1	-23.8	–	3.26 µM [rising, partial curve]
CC(C)(C)c1ccc(OCC(=O)N2CCN(C=O)CC2)cc1	-21.2	3.66 µM [falling, full curve]	3.26 µM [falling, full curve, poor fit]
Cc1ccc(-c2c[n+](Cc3ccc(Cl)c(Cl)c3)c3n2CCC3)cc1	-3.97	29.1 µM [falling, single point]	–

Of the compounds above, three contain an NH in an aromatic ring:
SMILES	cell number change [%]	AC50 [1]	AC50 [2]
Cc1cc(C)c2c(N=NN3CCOCC3)[nH]nc2n1	64.7	–	29.1 µM [rising, single point]
O=C(OCc1cc2ccccc2[nH]c1=O)c1cccnc1	8.69	0.461 µM [rising, full curve, poor fit]	–
CS(=O)(=O)c1ccccc1C(=O)Nc1ccc(-c2nc3ccccc3[nH]2)cc1	-25.1	0.259 µM [falling, full curve]	–

(cont.)

SMILES	cell number change [%]	AC50 [1]	AC50 [2]
O=C(CSc1ccccc1)Nc1ccc2c(c1)C(=O)NC2=O	21.7	18.4 µM [rising, partial curve]	–
O=C(Nc1nc2ccccc2[nH]1)NC1CCCCC1	7.43	29.1 µM [falling, single point]	–
O=C(c1ccc(Cl)c([N+](=O)[O-])c1)N(c1ccccn1)c1ccccn1	50	–	2.91 µM [rising, full curve, poor fit]
O=c1oc2cc(O)ccc2c2ccccc12	40.5	–	23.1 µM [rising, single point]
COc1ccc(C(=O)Nc2cccc(S(C)(=O)=O)c2)cc1OC	2.55	–	–
CC(=O)c1cc2cc(O)ccc2o1	-36.6	32.6 µM [falling, single point]	29.1 µM [falling, single point]
COc1cc(/C=N/NC(=O)Cn2nnc3ccccc32)ccc1O	–	–	3.26 µM [falling, single point]
CC1(c2ccc3c(c2)OCCCO3)NC(=O)N(CC(=O)NCCc2ccccc2)C1=O (stereo not drawn)	5.17	–	–
C=CCC1=C/C(=C\c2c(N)n3nc(CC(=O)N4CCOCC4)sc3nc2=O)C=C(OC)C1=O	-20.9	2.91 µM [falling, partial curve]	–
CN(C)c1ccc(N2C(=NC(=O)COc3ccccc3)SC3CS(=O)(=O)CC32)cc1 (stereo not drawn)	-30.7	1.64 µM [falling, partial curve]	6.51 µM [falling, full curve, poor fit]
NC(=O)CN1CCN(S(=O)(=O)c2ccc(Br)cc2)CC1	8.23	–	–
Cn1cncc1C#Cc1c(C=O)n(C)c2ccccc12	15	1.16 µM [falling, single point]	1.16 µM [falling, single point]
CCC(=O)Nc1nnc(SCC(=O)c2ccc3c(c2)Cc2ccccc2-3)s1	20.4	18.4 µM [rising, single point]	–
N#C/C(=C\c1ccccc1O)C(=O)Nc1ccccn1	54.1	29.1 µM [rising, single point]	2.31 µM [rising, partial curve, poor fit]
c1ccc2c(-c3[nH]ncc3CNCCCn3ncc4ccccc43)cccc2c1	-37.6	18.4 µM [falling, single point]	16.4 µM [falling, single point]
Oc1[nH]c2ccccc2c1N=Nc1nncc2ccccc12	-27.2	5.8 µM [falling, partial curve, poor fit]	–
CC(CCN1CCN=C1Nc1ccccc1)c1ccccc1 (stereo not drawn)	20.4	–	0.0731 µM [rising, full curve, poor fit]
CC(C)(C)c1ccc(OCCNC(=S)NC(=O)c2cccnc2)cc1	-5.85	0.13 µM [rising, full curve, poor fit]	–
CCN(CC)C(=O)C(=O)Nc1ccc(F)c(Cl)c1	-37.7	–	18.4 µM [falling, single point]
